The other results are listed elsewhere or left out.

Amino acid sequences for entries named in this document (tags omitted). A change or cut given only in a name is not applied to a line headed by its entry.
UniProt Q9H0H5: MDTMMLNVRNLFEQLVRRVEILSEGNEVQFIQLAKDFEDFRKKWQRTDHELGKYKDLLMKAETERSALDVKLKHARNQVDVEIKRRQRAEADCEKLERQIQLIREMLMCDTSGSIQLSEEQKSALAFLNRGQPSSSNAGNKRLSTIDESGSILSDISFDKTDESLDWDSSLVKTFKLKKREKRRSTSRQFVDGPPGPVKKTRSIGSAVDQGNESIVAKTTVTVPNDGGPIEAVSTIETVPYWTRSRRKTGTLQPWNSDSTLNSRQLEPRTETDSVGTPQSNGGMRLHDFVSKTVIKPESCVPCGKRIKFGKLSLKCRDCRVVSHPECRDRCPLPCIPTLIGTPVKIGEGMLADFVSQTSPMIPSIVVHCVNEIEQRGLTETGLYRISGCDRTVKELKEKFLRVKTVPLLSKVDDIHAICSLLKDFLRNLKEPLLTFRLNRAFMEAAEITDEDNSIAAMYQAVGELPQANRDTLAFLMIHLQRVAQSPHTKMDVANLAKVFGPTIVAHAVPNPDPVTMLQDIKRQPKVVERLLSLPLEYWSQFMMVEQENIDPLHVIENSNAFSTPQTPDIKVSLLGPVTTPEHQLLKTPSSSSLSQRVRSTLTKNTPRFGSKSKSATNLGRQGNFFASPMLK
UniProt O60671: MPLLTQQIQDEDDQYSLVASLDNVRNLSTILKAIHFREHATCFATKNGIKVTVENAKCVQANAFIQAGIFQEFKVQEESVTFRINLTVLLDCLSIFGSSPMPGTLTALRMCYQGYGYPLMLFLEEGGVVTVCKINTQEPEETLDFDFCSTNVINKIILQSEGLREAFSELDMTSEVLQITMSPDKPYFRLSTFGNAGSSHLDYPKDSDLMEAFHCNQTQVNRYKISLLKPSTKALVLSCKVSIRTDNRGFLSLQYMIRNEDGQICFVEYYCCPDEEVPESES
UniProt Q7Z6M1: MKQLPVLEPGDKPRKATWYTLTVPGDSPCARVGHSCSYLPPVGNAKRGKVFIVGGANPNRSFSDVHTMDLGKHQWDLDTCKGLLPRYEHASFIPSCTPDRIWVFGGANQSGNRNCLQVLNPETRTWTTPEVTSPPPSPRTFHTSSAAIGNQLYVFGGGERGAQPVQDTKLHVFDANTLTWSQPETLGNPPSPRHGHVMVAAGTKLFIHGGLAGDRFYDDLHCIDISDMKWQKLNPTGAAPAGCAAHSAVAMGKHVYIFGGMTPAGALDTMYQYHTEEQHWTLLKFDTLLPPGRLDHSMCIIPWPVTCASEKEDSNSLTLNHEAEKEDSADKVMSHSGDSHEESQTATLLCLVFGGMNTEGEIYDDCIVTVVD
UniProt Q96S59, whole entry, looked up: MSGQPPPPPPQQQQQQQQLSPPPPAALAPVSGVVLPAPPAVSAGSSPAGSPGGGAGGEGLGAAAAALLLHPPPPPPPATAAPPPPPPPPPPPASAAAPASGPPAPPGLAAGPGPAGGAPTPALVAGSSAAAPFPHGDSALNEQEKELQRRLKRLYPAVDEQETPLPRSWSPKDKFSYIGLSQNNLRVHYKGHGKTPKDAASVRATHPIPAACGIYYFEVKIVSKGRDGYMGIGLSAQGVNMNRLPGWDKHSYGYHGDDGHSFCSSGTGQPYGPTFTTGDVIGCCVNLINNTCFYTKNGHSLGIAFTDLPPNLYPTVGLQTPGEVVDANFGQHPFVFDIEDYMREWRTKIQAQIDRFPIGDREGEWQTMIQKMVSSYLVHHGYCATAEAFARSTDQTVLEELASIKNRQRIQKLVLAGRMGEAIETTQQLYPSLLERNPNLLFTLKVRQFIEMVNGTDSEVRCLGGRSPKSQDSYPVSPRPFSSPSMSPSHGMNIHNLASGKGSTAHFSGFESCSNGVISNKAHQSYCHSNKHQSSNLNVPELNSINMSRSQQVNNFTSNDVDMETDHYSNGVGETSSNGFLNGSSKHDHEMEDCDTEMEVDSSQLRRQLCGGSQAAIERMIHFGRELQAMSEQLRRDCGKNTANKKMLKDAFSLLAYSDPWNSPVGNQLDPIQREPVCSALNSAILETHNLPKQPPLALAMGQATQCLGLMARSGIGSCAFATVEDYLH
UniProt Q9UJ41, whole entry, looked up: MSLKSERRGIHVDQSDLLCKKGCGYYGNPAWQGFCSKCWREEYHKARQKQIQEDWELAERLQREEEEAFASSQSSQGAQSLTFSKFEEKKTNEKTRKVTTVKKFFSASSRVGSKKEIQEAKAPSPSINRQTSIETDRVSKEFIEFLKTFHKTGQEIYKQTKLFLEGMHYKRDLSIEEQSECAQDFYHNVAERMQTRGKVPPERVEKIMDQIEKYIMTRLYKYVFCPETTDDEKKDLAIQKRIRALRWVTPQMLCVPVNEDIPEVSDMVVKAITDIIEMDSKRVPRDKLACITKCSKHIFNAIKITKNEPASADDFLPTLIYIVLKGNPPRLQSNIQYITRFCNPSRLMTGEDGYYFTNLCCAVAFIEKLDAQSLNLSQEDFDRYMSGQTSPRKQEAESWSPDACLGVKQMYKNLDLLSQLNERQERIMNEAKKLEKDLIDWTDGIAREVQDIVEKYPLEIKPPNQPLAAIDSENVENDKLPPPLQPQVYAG
UniProt Q15276: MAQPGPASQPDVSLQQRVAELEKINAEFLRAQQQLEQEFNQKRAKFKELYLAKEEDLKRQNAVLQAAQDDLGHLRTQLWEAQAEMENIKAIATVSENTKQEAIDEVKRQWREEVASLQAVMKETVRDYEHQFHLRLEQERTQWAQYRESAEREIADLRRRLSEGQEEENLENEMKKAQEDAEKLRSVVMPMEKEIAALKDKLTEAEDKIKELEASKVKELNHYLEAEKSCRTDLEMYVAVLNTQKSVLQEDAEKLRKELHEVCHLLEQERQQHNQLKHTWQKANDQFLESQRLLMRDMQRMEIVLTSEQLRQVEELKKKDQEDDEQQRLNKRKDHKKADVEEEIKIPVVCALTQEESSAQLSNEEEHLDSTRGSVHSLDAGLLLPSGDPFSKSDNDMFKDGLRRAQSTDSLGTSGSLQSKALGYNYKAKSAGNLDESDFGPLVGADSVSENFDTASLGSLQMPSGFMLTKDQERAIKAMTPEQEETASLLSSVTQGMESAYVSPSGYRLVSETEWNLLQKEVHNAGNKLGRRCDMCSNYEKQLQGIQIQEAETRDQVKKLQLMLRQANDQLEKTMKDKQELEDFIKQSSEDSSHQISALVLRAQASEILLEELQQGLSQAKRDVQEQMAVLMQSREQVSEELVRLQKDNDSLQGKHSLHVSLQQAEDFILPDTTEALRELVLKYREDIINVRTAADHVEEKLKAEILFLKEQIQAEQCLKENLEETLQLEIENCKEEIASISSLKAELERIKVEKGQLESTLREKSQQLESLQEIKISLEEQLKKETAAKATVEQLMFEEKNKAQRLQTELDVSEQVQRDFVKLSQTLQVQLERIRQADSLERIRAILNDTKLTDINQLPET
UniProt Q9NRW1: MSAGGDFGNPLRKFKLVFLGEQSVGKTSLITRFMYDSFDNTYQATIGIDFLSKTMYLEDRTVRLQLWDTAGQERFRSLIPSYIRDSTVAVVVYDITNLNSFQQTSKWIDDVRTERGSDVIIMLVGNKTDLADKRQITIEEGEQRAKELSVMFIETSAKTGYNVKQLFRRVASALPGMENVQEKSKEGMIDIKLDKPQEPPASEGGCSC
UniProt P20339: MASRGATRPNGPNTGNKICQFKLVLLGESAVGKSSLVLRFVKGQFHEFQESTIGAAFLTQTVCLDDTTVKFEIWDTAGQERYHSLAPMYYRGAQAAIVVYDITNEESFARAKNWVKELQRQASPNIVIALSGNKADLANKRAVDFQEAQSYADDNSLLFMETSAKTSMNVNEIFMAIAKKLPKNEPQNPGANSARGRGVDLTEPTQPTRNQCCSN
UniProt Q969Q5: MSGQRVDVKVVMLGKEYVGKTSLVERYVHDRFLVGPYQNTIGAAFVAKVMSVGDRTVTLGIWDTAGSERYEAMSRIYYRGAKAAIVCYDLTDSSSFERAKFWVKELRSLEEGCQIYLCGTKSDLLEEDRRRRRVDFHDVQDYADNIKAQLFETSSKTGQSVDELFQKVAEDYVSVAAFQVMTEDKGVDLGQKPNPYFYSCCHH
UniProt Q53H96: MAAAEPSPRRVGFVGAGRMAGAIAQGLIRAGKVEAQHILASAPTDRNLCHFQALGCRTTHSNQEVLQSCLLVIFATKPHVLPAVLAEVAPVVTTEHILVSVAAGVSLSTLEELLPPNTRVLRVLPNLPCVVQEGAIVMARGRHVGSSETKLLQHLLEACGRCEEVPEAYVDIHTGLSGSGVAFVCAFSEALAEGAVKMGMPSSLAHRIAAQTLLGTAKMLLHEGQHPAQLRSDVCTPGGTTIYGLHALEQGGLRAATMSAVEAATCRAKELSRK
UniProt P61225: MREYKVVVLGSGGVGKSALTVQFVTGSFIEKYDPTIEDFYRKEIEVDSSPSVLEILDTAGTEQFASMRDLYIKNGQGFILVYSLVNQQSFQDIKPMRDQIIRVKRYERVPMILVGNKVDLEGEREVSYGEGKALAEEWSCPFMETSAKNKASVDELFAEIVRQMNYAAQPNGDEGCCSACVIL
UniProt Q92930: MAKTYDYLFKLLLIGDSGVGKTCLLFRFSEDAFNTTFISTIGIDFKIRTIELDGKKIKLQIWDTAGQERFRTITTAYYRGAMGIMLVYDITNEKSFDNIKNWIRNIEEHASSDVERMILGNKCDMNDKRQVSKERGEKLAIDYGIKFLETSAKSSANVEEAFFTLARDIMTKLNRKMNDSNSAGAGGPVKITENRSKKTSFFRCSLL
UniProt Q9NX57: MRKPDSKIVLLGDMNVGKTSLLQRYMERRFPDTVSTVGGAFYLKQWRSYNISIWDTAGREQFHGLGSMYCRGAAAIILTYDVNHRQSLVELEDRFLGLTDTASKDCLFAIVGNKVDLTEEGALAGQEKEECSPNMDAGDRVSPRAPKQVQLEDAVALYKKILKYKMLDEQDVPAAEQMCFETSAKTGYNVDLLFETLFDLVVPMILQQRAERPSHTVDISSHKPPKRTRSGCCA
UniProt Q9Y3L5: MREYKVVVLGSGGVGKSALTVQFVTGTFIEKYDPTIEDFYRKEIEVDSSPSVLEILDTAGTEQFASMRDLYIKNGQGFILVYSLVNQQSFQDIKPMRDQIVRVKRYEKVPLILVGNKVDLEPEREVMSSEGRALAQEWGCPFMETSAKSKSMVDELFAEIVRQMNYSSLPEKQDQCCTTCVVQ
UniProt P47736: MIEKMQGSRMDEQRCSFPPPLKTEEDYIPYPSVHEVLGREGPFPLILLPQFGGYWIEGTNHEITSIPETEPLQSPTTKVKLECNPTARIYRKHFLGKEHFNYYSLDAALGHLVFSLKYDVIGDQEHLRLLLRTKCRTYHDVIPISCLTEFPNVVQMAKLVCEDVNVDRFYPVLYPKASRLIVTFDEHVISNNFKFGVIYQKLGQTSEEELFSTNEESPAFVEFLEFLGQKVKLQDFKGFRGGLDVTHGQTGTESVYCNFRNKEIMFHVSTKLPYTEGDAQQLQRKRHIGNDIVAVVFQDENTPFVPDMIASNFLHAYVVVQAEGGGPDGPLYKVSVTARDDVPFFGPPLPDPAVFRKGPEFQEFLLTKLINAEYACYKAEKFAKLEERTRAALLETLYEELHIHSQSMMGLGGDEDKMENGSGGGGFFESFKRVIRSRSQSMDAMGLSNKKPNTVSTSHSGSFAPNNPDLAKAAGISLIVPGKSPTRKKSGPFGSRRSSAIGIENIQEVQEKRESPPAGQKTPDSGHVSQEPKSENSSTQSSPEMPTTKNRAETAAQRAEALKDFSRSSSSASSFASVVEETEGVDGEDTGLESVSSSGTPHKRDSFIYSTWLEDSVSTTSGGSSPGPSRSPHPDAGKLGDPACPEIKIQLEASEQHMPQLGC
UniProt Q06609, whole entry, looked up: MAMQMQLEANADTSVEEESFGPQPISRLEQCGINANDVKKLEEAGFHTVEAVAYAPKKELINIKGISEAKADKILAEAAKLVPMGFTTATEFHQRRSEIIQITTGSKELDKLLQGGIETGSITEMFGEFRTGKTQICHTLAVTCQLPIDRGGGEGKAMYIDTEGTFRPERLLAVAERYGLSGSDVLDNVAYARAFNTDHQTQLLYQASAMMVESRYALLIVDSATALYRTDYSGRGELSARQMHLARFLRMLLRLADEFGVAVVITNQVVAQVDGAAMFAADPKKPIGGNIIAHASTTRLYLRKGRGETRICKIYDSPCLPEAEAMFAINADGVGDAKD
UniProt P10114: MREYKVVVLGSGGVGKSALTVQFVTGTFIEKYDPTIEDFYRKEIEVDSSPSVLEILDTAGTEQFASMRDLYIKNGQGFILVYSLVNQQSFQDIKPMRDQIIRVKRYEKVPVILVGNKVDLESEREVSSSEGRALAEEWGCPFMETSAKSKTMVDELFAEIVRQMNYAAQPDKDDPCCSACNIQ
UniProt P61224: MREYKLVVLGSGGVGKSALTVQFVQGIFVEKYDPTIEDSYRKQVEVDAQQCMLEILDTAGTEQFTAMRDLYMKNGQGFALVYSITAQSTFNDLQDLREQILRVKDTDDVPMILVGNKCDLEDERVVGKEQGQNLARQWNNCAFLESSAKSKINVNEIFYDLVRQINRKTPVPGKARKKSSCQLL

The record followed here is the supplement of paper PMC10849652.

Compound in the first assay: C/C(=N\NC(=O)C1=CC(=CC=C1)S(=O)(=O)N2CCOCC2)/C3=C(C=CC(=C3)Cl)O
Briefly: log2 fold change, soluble protein after heating vs DMSO (PISA); higher = thermal stabilisation; K562 lysate, 10 uM; active = over 0.2 and 3.5 SD of the protein, either way, in both replicates (recomputed). The essentials:
(§1)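 Log-two fold change in thermal stability relative to solvent controls is reported from duplicates. For each sample, crude K562 extract from dounce-homogenised pellets in PBS pH 7.4 with 1 mM MgCl2, at 1 mg/mL protein, was treated with 10 μM compound for 30 min. Aliquots heated for 3 min across 48°C-58°C were pooled, brought to 0.5% NP-40 at 4°C and cleared at 21,000xg for 90 min. The supernatant was quantified by TMTpro 16plex LC-MS/MS with channel sums equalised.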
Take RACGAP1 (UniProt Q9H0H5): the log2 fold change was inactive: 0.02.

In the case of RAD1 (UniProt O60671), the log2 fold change is inactive: 0.034.

On to RAC2 (UniProt P15153), for which the log2 fold change is inactive: 0.018.

Take RABEPK (UniProt Q7Z6M1): the log2 fold change is inactive: 0.014.

Turning to RANBP9 (UniProt Q96S59), the log2 fold change is inactive: -0.017.

As to RAD51C (UniProt O43502), the log2 fold change was inactive: -0.053.

For the target RABGEF1 isoform 3 (UniProt Q9UJ41), the log2 fold change is inactive: 0.047.

On to RANBP6 (UniProt O60518), for which the log2 fold change was inactive: -0.043.

As to RABEP1 (UniProt Q15276), the log2 fold change was inactive: 0.019.

For the target RALGAPA1 isoform 6 (UniProt Q6GYQ0), the log2 fold change was inactive: -0.093.

Take RABAC1 (UniProt Q9UI14): the log2 fold change was inactive: 0.154.

Turning to RAB5B (UniProt P61020), the log2 fold change was inactive: -0.128.

With RAB6B (UniProt Q9NRW1), the log2 fold change is inactive: -0.088.

With RAB5A (UniProt P20339), the log2 fold change is inactive: -0.074.

On to RAB24 (UniProt Q969Q5), for which the log2 fold change was inactive: -0.044.

For the target PYCR3 (UniProt Q53H96), the log2 fold change is inactive: -0.003.

As to RAB10 (UniProt P61026), the log2 fold change was inactive: -0.006.

For the target RAN (UniProt P62826), the log2 fold change is inactive: 0.041.

With RAP2B (UniProt P61225), the log2 fold change is inactive: -0.364.

Take RAB8B (UniProt Q92930): the log2 fold change is inactive: -0.042.

Turning to RAB6A isoform 4 (UniProt P20340), the log2 fold change was inactive: -0.15.

Turning to RAB20 (UniProt Q9NX57), the log2 fold change is inactive: -0.122.

As to RAP2C (UniProt Q9Y3L5), the log2 fold change is inactive: -0.087.

Consider RAP1GAP isoform 4 (UniProt P47736), for which the log2 fold change is inactive: -0.028.

On to RAD51 (UniProt Q06609), for which the log2 fold change is inactive: 0.053.

Take RAD23B (UniProt P54727): the log2 fold change was inactive: -0.025.

On to RAP2A (UniProt P10114), for which the log2 fold change is inactive: 0.058.

For RAB11A (UniProt P62491), the log2 fold change is inactive: -0.078.

Take QRSL1 (UniProt Q9H0R6): the log2 fold change is inactive: -0.003.

For RAP1A (UniProt P62834), the log2 fold change was inactive: -0.056.

Turning to RAP1B (UniProt P61224), the log2 fold change was inactive: -0.085.

In the case of RAPGEF2, A0A2R8YGD3, the log2 fold change was inactive: 0.16.

As to RANBP17 (UniProt Q9H2T7), the log2 fold change was inactive: -0.128.

Compound in the next assay: C1=CC(=CC=C1C2=NC3=C(N2)C=C(C=C3)C(=O)N)OC4=CC=C(C=C4)Cl
The description is as above. The essentials: as §1
RACGAP1 (UniProt Q9H0H5): the log2 fold change is inactive: 0.025.

Consider RAD1 (UniProt O60671), for which the log2 fold change is inactive: -0.014.

RAC2 (UniProt P15153): the log2 fold change is inactive: 0.014.

As for RABEPK (UniProt Q7Z6M1), the log2 fold change was inactive: 0.012.

Take RANBP9 (UniProt Q96S59): the log2 fold change is inactive: 0.019.

For RAD51C (UniProt O43502), the log2 fold change was inactive: 0.023.

Take RABGEF1 isoform 3 (UniProt Q9UJ41): the log2 fold change is inactive: -0.02.

As to RANBP6 (UniProt O60518), the log2 fold change is inactive: -0.003.

For RABEP1 (UniProt Q15276), the log2 fold change was inactive: 0.014.

For the target RALGAPA1 isoform 6 (UniProt Q6GYQ0), the log2 fold change is inactive: 0.098.

With RABAC1 (UniProt Q9UI14), the log2 fold change is inactive: 0.044.

For the target RAB5B (UniProt P61020), the log2 fold change is inactive: 0.001.

In the case of RAB6B (UniProt Q9NRW1), the log2 fold change was inactive: 0.017.

For RAB5A (UniProt P20339), the log2 fold change is inactive: 0.085.

Turning to RAB24 (UniProt Q969Q5), the log2 fold change is inactive: 0.051.

As to PYCR3 (UniProt Q53H96), the log2 fold change is inactive: -0.022.

For RAB10 (UniProt P61026), the log2 fold change is inactive: 0.05.

Take RAN (UniProt P62826): the log2 fold change is inactive: 0.014.

Consider RAP2B (UniProt P61225), for which the log2 fold change was inactive: 0.002.

In the case of RAB8B (UniProt Q92930), the log2 fold change is inactive: 0.049.

With RAB6A isoform 4 (UniProt P20340), the log2 fold change was inactive: 0.064.

For the target RAB20 (UniProt Q9NX57), the log2 fold change was inactive: 0.045.

Turning to RAP2C (UniProt Q9Y3L5), the log2 fold change is inactive: -0.07.

On to RAP1GAP isoform 4 (UniProt P47736), for which the log2 fold change was inactive: -0.011.

As for RAD51 (UniProt Q06609), the log2 fold change was inactive: -0.029.

On to RAD23B (UniProt P54727), for which the log2 fold change was inactive: 0.026.

For the target RAP2A (UniProt P10114), the log2 fold change is inactive: 0.031.

As for RAB11A (UniProt P62491), the log2 fold change was inactive: 0.017.

As to QRSL1 (UniProt Q9H0R6), the log2 fold change is inactive: 0.004.

RAP1A (UniProt P62834): the log2 fold change is inactive: 0.016.

As to RAP1B (UniProt P61224), the log2 fold change is inactive: 0.024.

Regarding RAPGEF2, A0A2R8YGD3, the log2 fold change was inactive: 0.038.

With RANBP17 (UniProt Q9H2T7), the log2 fold change was inactive: -0.048.

Compound in another assay: C1=CC2=C(C=CC(=C2)/C=C\3/C(=O)NC(=NCC4=CC=CS4)S3)N=C1
The assay is described as above. The procedure, abridged: as §1
Consider RACGAP1 (UniProt Q9H0H5), for which the log2 fold change was inactive: -0.015.

For the target RAD1 (UniProt O60671), the log2 fold change is inactive: -0.023.

Consider RAC2 (UniProt P15153), for which the log2 fold change was inactive: -0.035.

As to RABEPK (UniProt Q7Z6M1), the log2 fold change was inactive: 0.004.

With RANBP9 (UniProt Q96S59), the log2 fold change was inactive: 0.023.

With RAD51C (UniProt O43502), the log2 fold change is inactive: -0.074.

For the target RABGEF1 isoform 3 (UniProt Q9UJ41), the log2 fold change is inactive: -0.031.

Take RANBP6 (UniProt O60518): the log2 fold change was inactive: -0.034.

In the case of RABEP1 (UniProt Q15276), the log2 fold change was inactive: -0.023.

As to RALGAPA1 isoform 6 (UniProt Q6GYQ0), the log2 fold change was inactive: 0.065.

Consider RABAC1 (UniProt Q9UI14), for which the log2 fold change is inactive: 0.017.

On to RAB5B (UniProt P61020), for which the log2 fold change was inactive: 0.013.

For the target RAB6B (UniProt Q9NRW1), the log2 fold change was inactive: 0.014.

As for RAB5A (UniProt P20339), the log2 fold change is inactive: 0.044.

For RAB24 (UniProt Q969Q5), the log2 fold change was inactive: -0.033.

Turning to PYCR3 (UniProt Q53H96), the log2 fold change was inactive: -0.069.

For the target RAB10 (UniProt P61026), the log2 fold change is inactive: 0.013.

With RAN (UniProt P62826), the log2 fold change was inactive: -0.022.

Consider RAP2B (UniProt P61225), for which the log2 fold change was inactive: -0.004.

In the case of RAB8B (UniProt Q92930), the log2 fold change is inactive: 0.113.

Turning to RAB6A isoform 4 (UniProt P20340), the log2 fold change is inactive: 0.06.

Consider RAB20 (UniProt Q9NX57), for which the log2 fold change was inactive: 0.162.

For the target RAP2C (UniProt Q9Y3L5), the log2 fold change is inactive: 0.008.

For the target RAP1GAP isoform 4 (UniProt P47736), the log2 fold change was inactive: -0.018.

Regarding RAD51 (UniProt Q06609), the log2 fold change was inactive: 0.08.

In the case of RAD23B (UniProt P54727), the log2 fold change is inactive: 0.009.

Turning to RAP2A (UniProt P10114), the log2 fold change was inactive: 0.035.

Regarding RAB11A (UniProt P62491), the log2 fold change was inactive: 0.01.

On to QRSL1 (UniProt Q9H0R6), for which the log2 fold change is inactive: -0.14.

On to RAP1A (UniProt P62834), for which the log2 fold change is inactive: -0.114.

On to RAP1B (UniProt P61224), for which the log2 fold change was inactive: 0.016.

Take RAPGEF2, A0A2R8YGD3: the log2 fold change is inactive: 0.042.

For the target RANBP17 (UniProt Q9H2T7), the log2 fold change was inactive: -0.076.
